Screen size: about 59,000 compounds; about 6,500 (11%) were called active. This list was built around the results that the source calls inconclusive (neither active nor inactive); the mix of calls is not that of the screen. Rule as the data show it: active = max dye-equivalent concentration above about 10 nM; inconclusive = mostly about 1.1 nM to 9.6 nM; inactive = weaker than that.
Assay: qHTS Assay for Spectroscopic Profiling in A350 Spectral Region
Conditions: Compound autofluorescence, 340/450 nm, Alexa 350 dye-equivalents; active compounds read high

SMILES	max dye-equivalent concentration
Cc1cc(N2CCN(C)CC2)nc2ccc(NC(=O)CCC(=O)NCc3ccco3)cc12	active: 400 nM
Cn1c(=O)c2cn3c(c2n(C)c1=O)C(c1ccccc1)CC(c1ccccc1)=N3 (centres undefined)	inconclusive: 1.8 nM
O=C(c1coc(=O)c2ccccc12)N1CCN(Cc2ccccc2)CC1	inconclusive: 1.6 nM
CCN(CC)C(=O)CSc1nnc([C@H](CCSC)NC(=O)OC(C)(C)C)o1	inactive
COCCNC(=O)C(c1ccco1)N(C(=O)Cn1nnc2ccccc21)c1ccc(C)cc1C (centres undefined)	active: 44 nM
NC12CC3CC(C1)CC(CO)(C3)O2	inconclusive: 1.5 nM
CCNc1sc(C(=O)c2cccs2)c(N)c1C#N	inconclusive: 1.5 nM
COc1cccc(NC(=O)C2CCCN2C(=O)OCc2ccccc2)c1 (centres undefined)	inactive
Cc1cccc(-c2c3c(=O)n(C)c(=O)n(C)c3cn2-c2ccccc2O)c1	inconclusive: 2 nM
CCCCCCCCN[C@@H](C)[C@H](O)c1ccc(SC(C)C)cc1	inconclusive: 3 nM
COC(=O)CSc1nc(-c2cccs2)ccc1C#N	active: 220 nM
CC(C)OCCCn1c(=S)[nH]c2ccc(N3CCOCC3)cc2c1=O	active: 29 nM
COc1cc(-c2nnc(SCC(=O)Nc3cc(C)on3)n2C)cc(OC)c1O	inconclusive: 1.5 nM
COc1cccc(Cn2cccc(NC(=O)NC3CCCCC3)c2=O)c1	inconclusive: 1.3 nM
Cn1nnnc1SCc1c(F)cccc1F	inactive
Cn1c(-c2ccc(Br)o2)nc2cc(Br)ccc21	inconclusive: 1.5 nM
CCOC(=O)COc1ccc2c(c1)C(=O)CC(C)(c1cccnc1)O2 (centres undefined)	active: 2100 nM
Cn1c(=O)c(-c2cc(F)cc(F)c2)nc2cnc(N3CCOCC3)nc21	inconclusive: 4.1 nM
CCOc1c(C#N)c(C#N)c2nc(C)cc(C)n12	inactive
CC(=O)OCc1c(F)c(F)c(-n2nc(C)cc2C)c(F)c1F	inactive
N#C/C(=C1\CCCN1)c1ccc2ccccc2n1	inconclusive: 1.2 nM
CC(=O)c1ccc(NC2c3ncccc3C(=O)N2Cc2ccc(F)cc2)cc1 (centres undefined)	inconclusive: 1.3 nM
FC(F)(F)c1cccc(N2CCc3cn[nH]c32)c1	inconclusive: 4.3 nM

SMILES	max dye-equivalent concentration
CN1C(=O)c2cccc3c(S(=O)(=O)Nc4ccccn4)ccc1c23	inconclusive: 9.2 nM
CC1CC(C)CN(C(=O)C2CCCN(S(=O)(=O)c3cccc4nonc34)C2)C1 (centres undefined)	inconclusive: 2.6 nM
CCOC(=O)C1CCN(S(=O)(=O)c2cccc(-c3csc(C)n3)c2)CC1	active: 140 nM
CC1CCc2sc3ncnc(N4CCOCC4)c3c2C1 (centres undefined)	inconclusive: 8.6 nM
CCOc1ccc(NC(=O)c2nccnc2CO)cc1	inconclusive: 1.4 nM
CN(C)CC(O)COc1cc2ccccc2cc1C(=O)N1CCCCC1 (centres undefined)	inconclusive: 1.5 nM
O[C@@H]1[C@@H]2c3cc4c(cc3CN3CCC(=C[C@@H]1O)[C@H]23)OCO4	active: 99 nM
Cc1cc(C)c2c(n1)nn1c(N3CCN(c4ccccc4)CC3)cc(C)nc21	active: 150 nM
N#Cc1cccc(-n2nnnc2-c2ccc3c(c2)OCO3)c1	inactive
CCOC(=O)C1CCCN(c2ncnc3c2cnn3-c2cccc(C)c2)C1 (centres undefined)	inactive
CCOC(=O)CC(=O)Nc1cc(Cl)ccc1O	inconclusive: 1.2 nM
CC1CCCCN1CCn1c(=S)[nH]c2ncccc2c1=O (centres undefined)	inconclusive: 2.1 nM
COc1cc2c(=O)n(CC3CCCO3)c(=O)n(CC(=O)Nc3cccc(Cl)c3)c2cc1OC (centres undefined)	inactive
O=C(COc1ccccc1O)Nc1ccc(Cl)cc1	inconclusive: 1.1 nM
Cn1c(=O)c2cn(-c3ccc4c(c3)OCCO4)cc2n(C)c1=O	inconclusive: 1.3 nM
Cc1nn2c(N3CCN(C(=O)c4ccco4)CC3)cc(C(C)(C)C)nc2c1-c1ccccc1	active: 84 nM
COc1ccc(S(=O)(=O)N2CCC(C(N)=O)CC2)c2ccccc12	inconclusive: 6.9 nM
Cc1ccccc1NC(=O)c1ccccc1	inactive
CC1(C)CCC2=C(O1)c1ccccc1C(=O)C2=O	inconclusive: 1.2 nM
Cc1cc(NC(=O)COC(=O)CCC(=O)c2ccc(F)cc2)no1	inactive
Cn1c(=O)c(C(=O)NCCO)c(O)c2ccccc21	inconclusive: 2.1 nM
Cc1ccc(N2C(=O)[C@@H]3C(c4ccc(F)cc4)=NO[C@@H]3C2=O)cc1	inconclusive: 1.8 nM
COc1cccc(Cn2c(=O)c(-c3cccc(C#N)c3)nc3cnc(N4CCOCC4)nc32)c1	inactive

SMILES	max dye-equivalent concentration
O=C(Cn1nnc2ccccc21)NCc1ccccc1	active: 66 nM
COc1ccc(OC)c(NC(=O)c2c(NC(=O)c3ccco3)sc3c2CCC3)c1	inconclusive: 2.6 nM
CCOC(=O)c1ccc(Oc2c(C)oc3c(CN4CCN(C)CC4)c(O)ccc3c2=O)cc1	active: 2700 nM
CCOC(=O)c1[nH]c2ccc(OC)cc2c1NS(=O)(=O)c1ccc(OC)cc1OC	active: 11 nM
COc1ccc(C(=O)NCCn2cc(SCC(=O)Nc3nnc(C)s3)c3ccccc32)cc1	inconclusive: 5.2 nM
Nc1cc(S(=O)(=O)O)cc2ccc(S(=O)(=O)O)cc12	inconclusive: 4.6 nM
CC(C)Cn1c(=O)c(C(=O)Nc2ccncc2)c(O)c2ccccc21	inconclusive: 1.2 nM
O=S1(=O)CCN2C(=N1)Sc1c2ccc2c1CCCC2	inconclusive: 1.3 nM
CCOC(=O)c1cc2c(C(F)(F)F)cc(-c3cccnc3)nc2o1	inconclusive: 10 nM
COC(=O)c1cn(C)c2ccc(S(=O)(=O)N3CC(C)CC(C)C3)cc2c1=O (centres undefined)	inconclusive: 1.1 nM
COc1cccc(-n2cc3c(=O)n(C)c(=O)n(C)c3c2)c1	inconclusive: 3.2 nM
COC(=O)c1ccc(COC(=O)c2ccc(-n3cnnn3)cc2)o1	inconclusive: 3.9 nM
C[C@]1(C2CCCC2)Cc2cc(OCC(=O)O)c(Cl)c(Cl)c2C1=O	inconclusive: 8.1 nM
COc1c(O)ccc2c1CN1CCc3cc4c(cc3[C@@H]1C2)OCO4	inconclusive: 8.1 nM
COc1ccc(CCn2c(NCCCN3CCOCC3)nc3c2c(=O)[nH]c(=O)n3C)cc1	inconclusive: 1.2 nM
COc1ccc(NCc2nnc(SCC#N)n2-c2ccccc2OC)cc1	inactive
O=C(NC(NCCCN1CCOCC1)(C(F)(F)F)C(F)(F)F)C1CCCCC1	active: 10 nM
COc1ccc(N(CC(=O)Nc2cc(C(=O)O)ccc2C)S(=O)(=O)c2c(C)noc2C)cc1	inactive
COc1ccc(CCNS(=O)(=O)c2ccc(C(=O)NCc3ccco3)cc2)cc1OC	inactive
CCOC(=O)C1CCN(c2nc3cc(OC)ccc3cc2C#N)CC1	active: 73 nM
Cc1ccccc1S(=O)(=O)Nc1nc2ccccc2nc1N1CCOCC1	active: 14 nM
CCn1c(SCC(=O)Nc2cccc(C)n2)nnc1-c1ccco1	inactive
CCOc1ccc(NC(=O)c2ccccc2O)cc1	inconclusive: 3.1 nM

Of the compounds above, these have a tert-butyl group.
SMILES	max dye-equivalent concentration
CCN(CC)C(=O)CSc1nnc([C@H](CCSC)NC(=O)OC(C)(C)C)o1	inactive
Cc1nn2c(N3CCN(C(=O)c4ccco4)CC3)cc(C(C)(C)C)nc2c1-c1ccccc1	active: 84 nM

Next compounds:

SMILES	max dye-equivalent concentration
CCn1nnnc1-c1ccc(OC)c(S(=O)(=O)N2CCCCC2)c1	active: 37 nM
COc1ccc(C2=NO[C@@H]3C(=O)N(C4CCCCC4)C(=O)[C@H]23)cc1OC	inactive
CCN(CC)CCCN1C(=O)c2oc3ccccc3c(=O)c2C1c1cccc(OC)c1OC (centres undefined)	active: 16 nM
COc1cc(C(=O)Nc2ccc(S(=O)(=O)Nc3cc(C)on3)cc2)cc(OC)c1OC	inactive
C[C@@H](CS(=O)(=O)Cc1ccccc1)C(N)=O	inactive
CC1CCN(C(=O)Cn2cc(C(=O)c3ccco3)c3ccccc32)CC1	inconclusive: 3.6 nM
CCOC(=O)c1cc2sccc2n1CC(=O)N1CCN(C(=O)c2ccco2)CC1	inconclusive: 1.4 nM
Cc1ccc(-n2ncc(C(=O)O)c2C2CCN(C(=O)OC(C)(C)C)CC2)cc1	inconclusive: 1.7 nM
CC(=O)Nc1nonc1-c1nc2ccccc2n1CCC#N	inconclusive: 2.2 nM
COc1ccc(OC)c(S(=O)(=O)N2c3cc(F)ccc3CCC2C)c1 (centres undefined)	inactive
C[C@@H]1c2cccc(O)c2C(O)=C2C(=O)[C@@]3(O)C(O)=C(C(N)=O)C(=O)[C@@H](N(C)C)[C@@H]3[C@@H](O)[C@@H]21	inconclusive: 1.5 nM
CCOC(=O)c1ccccc1NC(=O)CSc1nccn1C	inconclusive: 3 nM
Nc1cccc(-n2nncc2-c2ccc(Cl)cc2)c1	active: 15 nM
Cc1ccc(S(=O)(=O)NCCN=C(CN2CCCC2)NS(=O)(=O)c2ccc(C)cc2)cc1	inconclusive: 6.8 nM
CCOC(=O)COn1c(=O)c(-c2cccs2)[n+]([O-])c2ccccc21	active: 120 nM
COc1ccc(NC(=O)CN(C)S(=O)(=O)c2ccc3c(c2)OCCO3)c2ncccc12	inconclusive: 6.9 nM
COc1ccc(NC(=O)c2cc(-c3ccc(OC)c(OC)c3)on2)cc1OC	active: 16 nM
C=CCN1C(=NC(=O)CCCC(=O)O)SC2CS(=O)(=O)CC21 (centres undefined)	inconclusive: 1.1 nM
COc1ccc(CC(NC(C)=O)C(=O)NC2CCN(c3c4c(nc5ncnn35)CCC4)CC2)cc1 (centres undefined)	inactive
Cc1ccc2cc(C#N)c(NCc3ccco3)nc2c1	active: 170 nM

Two of these compounds in another layout:
CCOC(=O)c1cc2sccc2n1CC(=O)N1CCN(C(=O)c2ccco2)CC1
  max dye-equivalent concentration: inconclusive: 1.4 nM
Cc1ccc(-n2ncc(C(=O)O)c2C2CCN(C(=O)OC(C)(C)C)CC2)cc1
  max dye-equivalent concentration: inconclusive: 1.7 nM
